Test results from patent US20260083826A1, “NEW SYNTHETIC DRUGS FOR TREATING ALZHEIMER'S DISEASE” (OKINAWA INSTITUTE OF SCIENCE AND TECHNOLOGY SCHOOL …, priority 2022, published 2026).
“Also recorded” adds a separate entry of the source. Part of at least one peptide drawing is inferred or uncertain, most often the ends. Residues, ends and D or L forms follow the SMILES beside them. *: point of attachment. FITC = O=C1OC2(c3ccc(O)cc3Oc3cc(O)ccc32)c2ccc(NC(=S)*)cc21; βAla = NCCC(=O)O

Protein sequences, listed by entry. Tags and fused reporters are not part of them.
UniProt P02550, whole entry: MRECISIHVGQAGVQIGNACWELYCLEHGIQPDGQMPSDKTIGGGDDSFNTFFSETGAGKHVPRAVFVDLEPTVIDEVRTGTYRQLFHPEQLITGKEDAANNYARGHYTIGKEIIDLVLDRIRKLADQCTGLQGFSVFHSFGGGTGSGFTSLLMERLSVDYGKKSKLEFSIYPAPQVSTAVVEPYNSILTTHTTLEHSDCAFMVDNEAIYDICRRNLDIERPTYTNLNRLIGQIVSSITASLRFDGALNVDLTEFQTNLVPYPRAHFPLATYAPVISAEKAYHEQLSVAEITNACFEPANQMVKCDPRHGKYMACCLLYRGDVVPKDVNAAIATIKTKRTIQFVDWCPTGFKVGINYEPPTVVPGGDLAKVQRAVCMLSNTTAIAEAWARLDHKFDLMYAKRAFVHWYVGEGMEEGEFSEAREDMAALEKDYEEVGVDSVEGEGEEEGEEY
UniProt P02554, whole entry: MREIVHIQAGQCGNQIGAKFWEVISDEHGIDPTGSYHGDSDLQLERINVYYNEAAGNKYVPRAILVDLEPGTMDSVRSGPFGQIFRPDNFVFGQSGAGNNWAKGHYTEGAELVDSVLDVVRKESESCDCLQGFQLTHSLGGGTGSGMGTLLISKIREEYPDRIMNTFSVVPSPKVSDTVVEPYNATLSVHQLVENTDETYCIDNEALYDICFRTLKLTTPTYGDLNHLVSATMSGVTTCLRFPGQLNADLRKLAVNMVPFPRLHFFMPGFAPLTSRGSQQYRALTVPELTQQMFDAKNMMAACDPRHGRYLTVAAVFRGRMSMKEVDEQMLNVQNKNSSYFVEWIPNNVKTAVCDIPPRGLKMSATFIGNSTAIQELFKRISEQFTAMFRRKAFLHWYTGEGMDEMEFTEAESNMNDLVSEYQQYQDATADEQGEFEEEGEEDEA

Assays:
MT-dynamin1 interaction = target: T1, MT-dynamin1 interaction (Sus scrofa, UniProt P02550+P02554); assay: Electron microscopy of negatively stained microtubules with dynamin1
T1 construct: His

MT-dynamin 1 binding = target: T2, MT-dynamin 1 binding (Sus scrofa, UniProt P02550+P02554); assay: MT-dynamin binding assay (microtubule spin-down, SDS-PAGE, SYPRO Orange); parameters: species or system human; conditions: FITC-labeled candidate, same condition as PHDP5
T2 construct: His
Method: Microtubule binding assay was performed using Microtubule Binding Protein Spin Down Assay Kit (cat #BK029, Cytoskeleton Inc., Denver, CO, USA). Briefly, 20 μl of 5 mg/ml tubulin in general tubulin buffer (GTB; 80 mM PIPES pH7.0, 2 mM MgCl2, 0.5 mM EGTA) supplemented with 1 mM GTP were polymerized by adding 2 μl of cushion buffer (80 mM PIPES pH7.0, 1 mM MgCl2, 1 mM EGTA, 60% glycerol), and incubated at 35° C. for 20 min. Microtubules were stabilized with 20 μM Taxol. Taxol-stabilized microtubules (2.5 μM) and dynamin 1 ([…]) were incubated in GTB with or without 1 mM peptide at room temperature for 30 min. After incubation, the 50 μl of mixture was loaded on top of 100 μl cushion buffer supplemented with 20 μM Taxol, and then centrifuged at 100,000×g for 40 min at room temperature. After the ultracentrifugation, 50 μl of supernatant was taken and mixed with 10 μl of 5×sample buffer. The resultant pellet was resuspended with 50 μl of 1×sample buffer. Twenty μl of each sample was analyzed by SDS-PAGE and stained with SYPRO Orange. Protein bands were visualized using FLA-3000 (FUJIFILM Co. LTD, Tokyo, Japan).
MTs were prepared from tubulin and stabilized by taxol. And then taxol stabilized MTs and Dyn1 were incubated with/without PHDP5. […] Samples were analyzed by SDS-PAGE gel and visualized by SYPRO Orange staining. […]

Compound | Effect on MT-dynamin1 interaction in electron images (MT-dynamin1 interaction) | % of Dyn1 in pellet fraction compared with PHDP5 (MT-dynamin 1 binding)
CSCC[C@H](NC(=O)[C@H](Cc1ccc(O)cc1)NC(=O)[C@H](CCCCN)NC(=O)[C@H](CCCCN)NC(=O)[C@H](CCC(=O)O)NC(=O)[C@H](C)NC(=O)CCNC(=S)Nc1ccc2c(c1)C(=O)OC21c2ccc(O)cc2Oc2cc(O)ccc21)C(=O)N[C@@H](CC(C)C)C(=O)N[C@@H](CO)C(=O)N[C@H](C(=O)N[C@@H](CC(=O)O)C(=O)N[C@@H](CC(N)=O)C(=O)N[C@@H](CC(C)C)C(=O)N[C@@H](CCCCN)C(=O)N[C@@H](C)C(=O)N[C@@H](C)C(=O)N[C@@H](C)C(=O)N[C@@H](C)C(=O)N[C@@H](CCC(=O)O)C(=O)N[C@@H](CCCCN)C(=O)N[C@@H](C)C(=O)N[C@@H](C)C(=O)N[C@@H](C)C(=O)N[C@@H](C)C(=O)N[C@@H](CCC(=O)O)C(=O)N[C@@H](CCCCN)C(N)=O)C(C)C [FP5#3, (FITC)βAAEKKYMLSVDNLKAAAAEKAAAAEK-amide] ({FITC-βAla}-AEKKYMLSVDNLKAAAAEKAAAAEK-NH2) | seems to stabilize MT-dynamin 1 interaction; also recorded: seems to stabilize MT-dynamin1 interaction | –
CSCC[C@H](NC(=O)[C@H](Cc1ccc(O)cc1)NC(=O)[C@H](CCCCN)NC(=O)[C@H](CCCCN)NC(=O)[C@H](CCC(=O)O)NC(=O)[C@H](C)NC(=O)CCNC(=S)Nc1ccc2c(c1)C(=O)OC21c2ccc(O)cc2Oc2cc(O)ccc21)C(=O)N[C@@H](CC(C)C)C(=O)N[C@@H](CO)C(=O)N[C@H](C(=O)N[C@@H](CC(=O)O)C(=O)N[C@@H](CC(N)=O)C(=O)N[C@@H](CC(C)C)C(=O)N[C@@H](CCCCN)C(=O)N[C@@H](Cc1ccc(O)cc1)C(=O)NCC(=O)N[C@@H](CCCNC(=N)N)C(=O)N[C@@H](CCCCN)C(=O)N[C@@H](CCCCN)C(=O)N[C@@H](CCCNC(=N)N)C(=O)N[C@@H](CCCNC(=N)N)C(=O)N[C@@H](CCC(N)=O)C(=O)N[C@@H](CCCNC(=N)N)C(=O)N[C@@H](CCCNC(=N)N)C(=O)N[C@@H](CCCNC(=N)N)C(N)=O)C(C)C [FP5#1, (FITC)βAAEKKYMLSVDNLKYGRKKRRQRRR-amide] ({FITC-βAla}-AEKKYMLSVDNLKYGRKKRRQRRR-NH2) | – | lower % of Dyn1 than PHDP5
